15 targets from the supplement of paper PMC6411743 can be followed below.

By UniProt entry, the sequences of proteins in these tests, tags left out. Where a name states a change or a piece, a line headed by the entry shows the natural chain unless it says otherwise.
UniProt O43427: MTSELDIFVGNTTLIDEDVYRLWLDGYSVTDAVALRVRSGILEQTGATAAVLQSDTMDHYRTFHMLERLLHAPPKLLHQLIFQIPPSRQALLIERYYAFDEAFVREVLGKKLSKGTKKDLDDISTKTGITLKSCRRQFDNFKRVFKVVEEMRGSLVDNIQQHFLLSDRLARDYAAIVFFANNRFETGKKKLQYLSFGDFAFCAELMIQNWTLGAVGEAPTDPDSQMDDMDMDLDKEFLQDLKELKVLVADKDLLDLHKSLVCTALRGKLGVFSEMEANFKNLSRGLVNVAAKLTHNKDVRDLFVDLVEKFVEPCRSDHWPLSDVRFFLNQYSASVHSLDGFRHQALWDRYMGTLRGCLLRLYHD
UniProt Q15434: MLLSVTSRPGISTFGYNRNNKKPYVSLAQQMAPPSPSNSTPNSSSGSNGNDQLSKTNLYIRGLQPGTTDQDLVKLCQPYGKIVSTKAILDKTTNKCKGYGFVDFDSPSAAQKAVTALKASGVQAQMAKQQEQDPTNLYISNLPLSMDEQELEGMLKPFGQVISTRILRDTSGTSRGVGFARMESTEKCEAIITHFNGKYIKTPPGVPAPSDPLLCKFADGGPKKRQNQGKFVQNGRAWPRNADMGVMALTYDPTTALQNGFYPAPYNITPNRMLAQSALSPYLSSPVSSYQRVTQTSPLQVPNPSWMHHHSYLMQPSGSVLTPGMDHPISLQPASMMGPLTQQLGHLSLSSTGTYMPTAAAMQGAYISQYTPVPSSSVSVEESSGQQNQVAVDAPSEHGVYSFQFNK
UniProt Q5HYJ3: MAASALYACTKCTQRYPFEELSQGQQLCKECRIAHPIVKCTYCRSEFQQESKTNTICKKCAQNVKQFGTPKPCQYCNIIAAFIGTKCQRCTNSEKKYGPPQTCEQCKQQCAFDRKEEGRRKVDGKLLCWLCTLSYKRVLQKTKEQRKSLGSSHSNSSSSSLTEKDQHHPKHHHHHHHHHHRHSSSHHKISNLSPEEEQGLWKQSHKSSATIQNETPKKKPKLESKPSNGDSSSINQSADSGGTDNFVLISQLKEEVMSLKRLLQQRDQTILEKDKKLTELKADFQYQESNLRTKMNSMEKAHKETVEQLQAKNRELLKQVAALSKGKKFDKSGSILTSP
UniProt P17480: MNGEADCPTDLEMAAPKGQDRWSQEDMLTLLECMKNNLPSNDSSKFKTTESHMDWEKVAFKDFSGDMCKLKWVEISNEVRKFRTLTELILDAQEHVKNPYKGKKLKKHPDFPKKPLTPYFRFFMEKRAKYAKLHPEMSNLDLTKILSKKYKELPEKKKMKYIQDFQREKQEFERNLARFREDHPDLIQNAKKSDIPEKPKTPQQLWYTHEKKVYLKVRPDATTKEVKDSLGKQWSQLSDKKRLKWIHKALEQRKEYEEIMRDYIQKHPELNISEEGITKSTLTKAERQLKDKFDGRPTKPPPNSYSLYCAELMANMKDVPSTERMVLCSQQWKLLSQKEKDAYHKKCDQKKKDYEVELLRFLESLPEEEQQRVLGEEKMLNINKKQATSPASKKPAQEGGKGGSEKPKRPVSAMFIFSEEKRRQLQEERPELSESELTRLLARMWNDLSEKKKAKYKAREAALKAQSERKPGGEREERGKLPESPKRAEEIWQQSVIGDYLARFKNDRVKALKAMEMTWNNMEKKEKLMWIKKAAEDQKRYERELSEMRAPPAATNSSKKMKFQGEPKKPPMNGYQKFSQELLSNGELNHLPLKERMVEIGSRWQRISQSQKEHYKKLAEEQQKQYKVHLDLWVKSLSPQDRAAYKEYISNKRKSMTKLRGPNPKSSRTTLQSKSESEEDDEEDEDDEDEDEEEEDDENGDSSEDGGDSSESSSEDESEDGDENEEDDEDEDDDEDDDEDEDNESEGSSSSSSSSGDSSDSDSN
UniProt O75387: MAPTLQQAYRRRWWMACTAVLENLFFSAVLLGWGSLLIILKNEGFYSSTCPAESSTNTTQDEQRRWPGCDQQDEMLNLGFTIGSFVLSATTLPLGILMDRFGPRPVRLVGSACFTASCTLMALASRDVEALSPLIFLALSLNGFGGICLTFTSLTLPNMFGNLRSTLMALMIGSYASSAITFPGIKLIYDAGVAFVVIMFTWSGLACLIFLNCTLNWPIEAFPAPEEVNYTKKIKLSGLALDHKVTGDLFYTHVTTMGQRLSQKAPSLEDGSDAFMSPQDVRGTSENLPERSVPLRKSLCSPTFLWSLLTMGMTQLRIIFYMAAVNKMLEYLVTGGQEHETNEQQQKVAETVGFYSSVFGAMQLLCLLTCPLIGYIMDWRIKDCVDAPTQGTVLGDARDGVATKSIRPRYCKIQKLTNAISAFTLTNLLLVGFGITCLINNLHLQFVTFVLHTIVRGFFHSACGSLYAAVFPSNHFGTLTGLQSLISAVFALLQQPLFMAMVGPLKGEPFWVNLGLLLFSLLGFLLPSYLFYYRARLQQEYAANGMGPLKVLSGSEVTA
UniProt Q03426, whole entry: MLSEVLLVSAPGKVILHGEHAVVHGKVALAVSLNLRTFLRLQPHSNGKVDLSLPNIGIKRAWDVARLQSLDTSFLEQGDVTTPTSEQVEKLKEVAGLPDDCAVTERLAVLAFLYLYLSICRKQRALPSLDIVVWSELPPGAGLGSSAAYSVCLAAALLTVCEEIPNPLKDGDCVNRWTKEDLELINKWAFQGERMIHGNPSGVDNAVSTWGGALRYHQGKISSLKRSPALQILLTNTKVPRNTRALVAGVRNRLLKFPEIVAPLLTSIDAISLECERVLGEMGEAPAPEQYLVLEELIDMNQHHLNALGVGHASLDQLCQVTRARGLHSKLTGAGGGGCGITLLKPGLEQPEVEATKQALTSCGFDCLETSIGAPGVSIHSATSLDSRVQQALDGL
UniProt Q92844: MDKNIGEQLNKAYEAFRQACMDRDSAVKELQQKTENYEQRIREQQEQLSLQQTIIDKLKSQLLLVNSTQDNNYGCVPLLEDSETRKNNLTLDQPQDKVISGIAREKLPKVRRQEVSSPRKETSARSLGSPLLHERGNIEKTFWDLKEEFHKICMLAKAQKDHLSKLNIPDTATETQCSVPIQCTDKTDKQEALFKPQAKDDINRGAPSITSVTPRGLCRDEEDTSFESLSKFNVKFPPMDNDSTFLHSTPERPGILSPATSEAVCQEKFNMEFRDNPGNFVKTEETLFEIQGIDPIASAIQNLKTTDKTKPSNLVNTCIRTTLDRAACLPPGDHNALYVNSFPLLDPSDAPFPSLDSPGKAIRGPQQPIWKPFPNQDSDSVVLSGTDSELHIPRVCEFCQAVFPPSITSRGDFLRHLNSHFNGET
UniProt Q9HAW4: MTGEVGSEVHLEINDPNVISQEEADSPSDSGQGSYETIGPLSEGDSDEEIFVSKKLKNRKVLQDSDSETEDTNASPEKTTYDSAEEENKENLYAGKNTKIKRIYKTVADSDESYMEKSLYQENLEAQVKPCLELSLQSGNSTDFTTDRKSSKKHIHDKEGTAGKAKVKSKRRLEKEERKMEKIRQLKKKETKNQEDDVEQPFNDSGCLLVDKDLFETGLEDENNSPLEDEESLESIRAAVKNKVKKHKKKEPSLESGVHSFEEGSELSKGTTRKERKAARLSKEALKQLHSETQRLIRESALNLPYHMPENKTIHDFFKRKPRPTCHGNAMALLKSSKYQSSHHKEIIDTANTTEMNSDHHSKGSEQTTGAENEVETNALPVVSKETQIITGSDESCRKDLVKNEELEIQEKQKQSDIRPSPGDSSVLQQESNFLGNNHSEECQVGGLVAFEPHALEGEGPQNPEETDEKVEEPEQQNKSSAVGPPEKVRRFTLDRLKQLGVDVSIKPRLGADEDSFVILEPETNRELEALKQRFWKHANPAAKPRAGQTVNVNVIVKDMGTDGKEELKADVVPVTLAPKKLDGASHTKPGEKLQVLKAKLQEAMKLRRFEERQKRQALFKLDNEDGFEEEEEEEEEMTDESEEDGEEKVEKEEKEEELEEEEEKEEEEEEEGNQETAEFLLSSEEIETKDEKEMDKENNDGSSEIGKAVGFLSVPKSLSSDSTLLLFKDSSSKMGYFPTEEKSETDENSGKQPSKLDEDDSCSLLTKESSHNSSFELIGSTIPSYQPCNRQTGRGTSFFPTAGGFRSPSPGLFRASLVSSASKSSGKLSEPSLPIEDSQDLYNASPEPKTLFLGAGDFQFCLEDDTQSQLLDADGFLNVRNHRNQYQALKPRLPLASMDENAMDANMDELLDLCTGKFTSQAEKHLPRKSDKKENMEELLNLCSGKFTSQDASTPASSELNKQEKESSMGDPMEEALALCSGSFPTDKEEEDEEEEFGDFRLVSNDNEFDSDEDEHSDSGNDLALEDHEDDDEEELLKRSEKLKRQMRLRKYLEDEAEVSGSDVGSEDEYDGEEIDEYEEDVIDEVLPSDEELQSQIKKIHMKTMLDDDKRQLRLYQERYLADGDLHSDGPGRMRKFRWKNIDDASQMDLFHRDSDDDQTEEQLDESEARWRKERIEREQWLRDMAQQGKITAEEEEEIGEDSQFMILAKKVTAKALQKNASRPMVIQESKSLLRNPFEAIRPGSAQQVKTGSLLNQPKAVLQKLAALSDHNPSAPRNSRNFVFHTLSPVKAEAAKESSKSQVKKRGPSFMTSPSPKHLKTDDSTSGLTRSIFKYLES
UniProt Q9UIF9: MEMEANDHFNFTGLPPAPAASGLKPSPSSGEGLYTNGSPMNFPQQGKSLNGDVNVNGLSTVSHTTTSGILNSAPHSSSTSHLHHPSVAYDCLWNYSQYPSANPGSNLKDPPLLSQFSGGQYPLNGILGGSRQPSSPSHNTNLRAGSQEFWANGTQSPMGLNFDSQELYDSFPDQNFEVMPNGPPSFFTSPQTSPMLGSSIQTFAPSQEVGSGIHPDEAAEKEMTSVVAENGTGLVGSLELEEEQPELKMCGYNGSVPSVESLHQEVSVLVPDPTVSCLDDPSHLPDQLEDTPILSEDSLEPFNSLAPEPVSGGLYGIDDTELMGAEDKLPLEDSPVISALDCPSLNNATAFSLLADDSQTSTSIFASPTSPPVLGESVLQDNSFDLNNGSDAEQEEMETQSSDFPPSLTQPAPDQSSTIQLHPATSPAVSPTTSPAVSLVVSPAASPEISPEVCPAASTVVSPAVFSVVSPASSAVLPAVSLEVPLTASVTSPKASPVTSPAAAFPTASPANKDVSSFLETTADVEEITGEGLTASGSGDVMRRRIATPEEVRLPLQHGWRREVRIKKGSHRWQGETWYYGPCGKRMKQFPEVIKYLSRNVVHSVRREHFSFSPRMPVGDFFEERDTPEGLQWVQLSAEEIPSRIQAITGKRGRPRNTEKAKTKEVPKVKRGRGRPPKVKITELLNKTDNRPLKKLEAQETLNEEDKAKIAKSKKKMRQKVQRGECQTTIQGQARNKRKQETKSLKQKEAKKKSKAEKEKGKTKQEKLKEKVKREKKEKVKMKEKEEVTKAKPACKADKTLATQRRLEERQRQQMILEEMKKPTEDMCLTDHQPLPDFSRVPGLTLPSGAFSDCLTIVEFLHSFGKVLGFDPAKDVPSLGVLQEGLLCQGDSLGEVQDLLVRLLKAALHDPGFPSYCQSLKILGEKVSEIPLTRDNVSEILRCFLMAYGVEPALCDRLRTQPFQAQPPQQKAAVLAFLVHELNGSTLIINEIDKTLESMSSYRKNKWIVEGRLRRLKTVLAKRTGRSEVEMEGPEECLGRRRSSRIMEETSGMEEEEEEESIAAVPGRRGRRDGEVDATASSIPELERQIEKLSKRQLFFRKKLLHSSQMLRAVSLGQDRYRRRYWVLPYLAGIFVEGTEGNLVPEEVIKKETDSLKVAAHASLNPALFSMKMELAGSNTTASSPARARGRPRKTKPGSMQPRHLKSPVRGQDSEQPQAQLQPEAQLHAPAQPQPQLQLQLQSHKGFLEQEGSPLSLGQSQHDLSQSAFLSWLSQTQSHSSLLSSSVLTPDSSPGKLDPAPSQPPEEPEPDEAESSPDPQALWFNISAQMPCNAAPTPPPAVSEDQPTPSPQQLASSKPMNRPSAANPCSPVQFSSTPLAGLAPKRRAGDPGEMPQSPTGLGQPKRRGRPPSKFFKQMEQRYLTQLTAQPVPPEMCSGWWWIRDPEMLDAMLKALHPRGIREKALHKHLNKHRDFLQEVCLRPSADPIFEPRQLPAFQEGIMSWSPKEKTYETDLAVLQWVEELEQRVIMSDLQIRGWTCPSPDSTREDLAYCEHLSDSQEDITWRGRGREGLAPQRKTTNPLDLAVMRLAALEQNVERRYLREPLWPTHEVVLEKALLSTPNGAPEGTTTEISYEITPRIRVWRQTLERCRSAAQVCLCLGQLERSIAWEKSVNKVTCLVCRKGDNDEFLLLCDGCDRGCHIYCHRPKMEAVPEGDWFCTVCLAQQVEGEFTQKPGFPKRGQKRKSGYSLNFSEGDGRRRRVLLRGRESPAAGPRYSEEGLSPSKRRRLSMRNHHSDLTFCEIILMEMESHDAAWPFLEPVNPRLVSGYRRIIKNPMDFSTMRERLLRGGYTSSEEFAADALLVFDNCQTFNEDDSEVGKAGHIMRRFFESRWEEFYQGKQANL

± gives the standard deviation of the averaged measurements. The list shows a part of the results, in another mix than the full data.

Compound in this experiment: Nc1ncnc2c1ncn2[C@@H]1O[C@H](COP(=O)(O)OP(=O)(O)NP(=O)(O)O)[C@@H](O)[C@H]1O [adenylyl imidodiphosphate]
The experiment is described as follows: NP40-soluble protein abundance relative to vehicle (solubility fold change) (ratio); higher = more soluble protein in presence of AMP-PNP. Summed up: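 Each value is a fold change relative to the detergent-processed vehicle, calculated per replicate from vsn-normalised intensities. Jurkat crude lysate received eight concentrations (0.1 to 10 mM) for 10 min at room temperature and 3 min at 37 °C, then was solubilised in 0.8% NP40 with benzonase (60 min, 4 °C). The ultracentrifuged supernatant was TMT-labelled and run by LC-MS/MS in three independent experiments.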

With “E9PJ55 and related entries (UniProt Q9NUJ3)”, the NP40-soluble protein abundance runs as follows: (concentration: 1mM) 0.997 ± 0.04; (concentration: 2mM) 0.969 ± 0.026; (concentration: 4mM) 0.997 ± 0.035; (concentration: 6mM) 0.957 ± 0.078; (concentration: 8mM) 0.972 ± 0.058; (concentration: 10mM) 0.954 ± 0.069.
As for “E9PSD3 and related entries (UniProt O43427)”, the NP40-soluble protein abundance (concentration: 1mM) amounted to 0.926 ± 0.026; the NP40-soluble protein abundance (concentration: 2mM) amounted to 0.862 ± 0.067; the NP40-soluble protein abundance (concentration: 4mM) came out at 0.91 ± 0.015; the NP40-soluble protein abundance (concentration: 6mM) is 0.922 ± 0.04; the NP40-soluble protein abundance (concentration: 8mM) stood at 0.933 ± 0.011; the NP40-soluble protein abundance (concentration: 10mM) worked out at 0.904 ± 0.038.
As for “F8W1T6 and related entries (UniProt Q15434)”, the NP40-soluble protein abundance is, setting by setting: (concentration: 1mM) 1.01 ± 0.014; (concentration: 2mM) 1.01 ± 0.037; (concentration: 4mM) 1 ± 0.026; (concentration: 6mM) 1.001 ± 0.0072; (concentration: 8mM) 0.967 ± 0.018; (concentration: 10mM) 0.992 ± 0.011.
As for “E7ERS3 and related entries (UniProt Q86VM9)”, the NP40-soluble protein abundance is, setting by setting: (concentration: 1mM) 1.05 ± 0.038; (concentration: 2mM) 1.17 ± 0.083; (concentration: 4mM) 1.12 ± 0.018; (concentration: 6mM) 1.17 ± 0.095; (concentration: 8mM) 1.16 ± 0.074; (concentration: 10mM) 1.26 ± 0.1.
Consider “F5GX09 and related entries (UniProt Q5HYJ3)”, for which the NP40-soluble protein abundance came out at 1 ± 0.024 (concentration: 1mM); 1.04 ± 0.057 (concentration: 2mM); 0.995 ± 0.034 (concentration: 4mM); 0.986 ± 0.025 (concentration: 6mM); 0.965 ± 0.013 (concentration: 8mM); 1.01 ± 0.025 (concentration: 10mM).
As for “E9PLT2 and related entries (UniProt P17480)”, the NP40-soluble protein abundance (concentration: 1mM) stood at 1.08 ± 0.032; the NP40-soluble protein abundance (concentration: 2mM) turned out to be 1.23 ± 0.06; the NP40-soluble protein abundance (concentration: 4mM) was found to be 1.32 ± 0.055; the NP40-soluble protein abundance (concentration: 6mM) stood at 1.47 ± 0.026; the NP40-soluble protein abundance (concentration: 8mM) was 1.56 ± 0.027; the NP40-soluble protein abundance (concentration: 10mM) was 1.73 ± 0.044.
For the target “E9PJ68 and related entries (UniProt O75387)”, the NP40-soluble protein abundance reads like this: (concentration: 1mM) 1.011 ± 0.0075; (concentration: 2mM) 1.01 ± 0.018; (concentration: 4mM) 1 ± 0.014; (concentration: 6mM) 1.009 ± 0.0095; (concentration: 8mM) 1.02 ± 0.012; (concentration: 10mM) 1.08 ± 0.026.
Turning to “F5H8H2 and related entries (UniProt Q03426)”, the NP40-soluble protein abundance (concentration: 1mM) is 0.987 ± 0.025; the NP40-soluble protein abundance (concentration: 2mM) is 0.934 ± 0.068; the NP40-soluble protein abundance (concentration: 4mM) was 0.958 ± 0.039; the NP40-soluble protein abundance (concentration: 6mM) is 0.919 ± 0.0089; the NP40-soluble protein abundance (concentration: 8mM) came out at 0.935 ± 0.032; the NP40-soluble protein abundance (concentration: 10mM) turned out to be 0.916 ± 0.017.
Turning to “E7EPP6 and related entries (UniProt O14757)”, the NP40-soluble protein abundance turned out to be 0.986 ± 0.0096 (concentration: 1mM); 0.9479 ± 0.0067 (concentration: 2mM); 0.985 ± 0.049 (concentration: 4mM); 0.942 ± 0.036 (concentration: 6mM); 0.962 ± 0.04 (concentration: 8mM); 0.934 ± 0.054 (concentration: 10mM).
Take “E7EQA9 and related entries (UniProt Q92844)”: the NP40-soluble protein abundance runs as follows: (concentration: 1mM) 1.001 ± 0.0025; (concentration: 2mM) 1.07 ± 0.084; (concentration: 4mM) 0.981 ± 0.024; (concentration: 6mM) 0.988 ± 0.026; (concentration: 8mM) 0.946 ± 0.014; (concentration: 10mM) 0.955 ± 0.038.
Regarding “E9PJI0 and related entries (UniProt Q5JPF3)”, the NP40-soluble protein abundance runs as follows: (concentration: 1mM) 0.9631 ± 0.009; (concentration: 2mM) 1 ± 0.076; (concentration: 4mM) 0.959 ± 0.021; (concentration: 6mM) 0.972 ± 0.014; (concentration: 8mM) 0.959 ± 0.034; (concentration: 10mM) 0.976 ± 0.058.
For “E9PGT1 and related entries (UniProt Q15631)”, the NP40-soluble protein abundance reads like this: (concentration: 1mM) 0.975 ± 0.049; (concentration: 2mM) 0.951 ± 0.028; (concentration: 4mM) 0.944 ± 0.048; (concentration: 6mM) 0.974 ± 0.082; (concentration: 8mM) 1.02 ± 0.059; (concentration: 10mM) 0.993 ± 0.056.
For “E7ESG2 and related entries (UniProt Q9HAW4)”, the NP40-soluble protein abundance (concentration: 1mM) worked out at 0.994 ± 0.02; the NP40-soluble protein abundance (concentration: 2mM) amounted to 1.03 ± 0.044; the NP40-soluble protein abundance (concentration: 4mM) stood at 1.01 ± 0.018; the NP40-soluble protein abundance (concentration: 6mM) amounted to 1.05 ± 0.018; the NP40-soluble protein abundance (concentration: 8mM) turned out to be 1.03 ± 0.038; the NP40-soluble protein abundance (concentration: 10mM) turned out to be 1.04 ± 0.042.
Regarding “E7EVX2 and related entries (UniProt Q13439)”, the NP40-soluble protein abundance amounted to 1.02 ± 0.02 (concentration: 1mM); 1.07 ± 0.06 (concentration: 2mM); 1.03 ± 0.024 (concentration: 4mM); 0.98 ± 0.027 (concentration: 6mM); 0.968 ± 0.027 (concentration: 8mM); 0.982 ± 0.017 (concentration: 10mM).
Take “F8VU39 and related entries (UniProt Q9UIF9)”: the NP40-soluble protein abundance reads like this: (concentration: 1mM) 1 ± 0.015; (concentration: 2mM) 0.9926 ± 0.0061; (concentration: 4mM) 1.023 ± 0.0073; (concentration: 6mM) 1.02 ± 0.039; (concentration: 8mM) 1.01 ± 0.014; (concentration: 10mM) 1.03 ± 0.037.
